Data source: PubChem BioAssay AID602196 (INSERM, 2012)
The deposit covers about 23,000 reagents; this is an unselected part. 455 of them (2%) were called active. 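Active includes both protection and sensitisation; some change values fall well beyond the stated -50 to +50 range.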 Entries without a mark were called inactive. Not given: the amount of reagent.

Aim: 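Modifiers of cisplatin sensitivity in A549 cells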
Cells: human A549 lung cancer cells
Reagents: siRNA pair against human genes
Duration: 48 h transfection before cisplatin; time from cisplatin to read-out not stated
Treatment: cisplatin at a dose killing half of control-siRNA cells; exact dose and duration not given
Detection: 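Shift in cisplatin death relative to control siRNA, from -50 (all cells die) to +50 (no cells die); siRNAs harmful on their own scored 0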
Direction: two-siRNA summed score (-2 to +2): higher = both siRNAs protect from cisplatin killing; -2 means both sensitise; mean protection from cisplatin (shift in death) and protection from cisplatin (shift in death), siRNA C and protection from cisplatin (shift in death), siRNA D: higher = protection from cisplatin killing
Active means: 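siRNAs harmful alone (LDH or WST-1) get 0; others get +1 for less and -1 for more cisplatin killing; genes are active when the two siRNAs give the same sign, summing to ±2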
Calls: active = both siRNAs shift cisplatin killing the same way; inactive = no consistent shift, or siRNA harmful alone

| gene | PubChem SID | two-siRNA summed score (-2 to +2) | mean protection from cisplatin (shift in death) (%) | protection from cisplatin (shift in death), siRNA C (%) | protection from cisplatin (shift in death), siRNA D (%) |
| --- | --- | --- | --- | --- | --- |
| CD300LG | SID131507922 | 0 | 0.4 | 8.9 | -8 |
| MERTK | SID131520781 | 1 | 11.1 | 17.6 | 4.6 |
| CCBE1 | SID131510942 | 0 | 3.8 | 7.6 | 0 |
| COX4I1 | SID131519198 | 1 | 3.6 | -9.4 | 16.7 |
| KLHL6 | SID131519947 | 1 | 8.1 | 13.7 | 2.5 |
| SCAND1 | SID131513024 | 0 | 6.1 | 8 | 4.2 |
| BGLAP | SID131509025 | 0 | 1.7 | 6.4 | -2.9 |
| NISCH | SID131511509 | 0 | 4.4 | 5.5 | 3.4 |
| ICA1L | SID131509457 | 0 | 2.2 | -0.8 | 5.1 |
| ICA1L | SID131513953 | 0 | 7.2 | 8.4 | 6 |
| SMAD7 | SID131513203 | 0 | 6.3 | 11.8 | 0.9 |
| LOC441799 | SID131516078 | 0 | 10.2 | 5.2 | 15.2 |
| LOC400574 | SID131516132 | 0 | 10.3 | 11.1 | 9.5 |
| FNDC11 | SID131513552 | 0 | 6.7 | 7.4 | 6 |
| PABPC5 | SID131507360 | 0 | -0.2 | -15.6 | 15.2 |
| ZNF444 | SID131510941 | 0 | 3.8 | -10.3 | 18 |
| CSH2 | SID131505538 | 0 | -3 | -13.5 | 7.5 |
| SCGB1D1 | SID131512332 | 0 | 5.4 | -1.4 | 12.1 |
| CMTM4 | SID131511452 | 0 | 4.4 | 10.4 | -1.6 |
| NOTUM | SID131508663 | 0 | 1.3 | -3 | 5.6 |
| LOC441555 | SID131517826 | 0 | 15 | 7.7 | 22.3 |
| MCM4 | SID131506346 | 0 | -1.7 | 2.6 | -5.9 |
| FAM114A1 | SID131503221 | 0 | -12 | -4.4 | -19.6 |
| OPRL1 | SID131502103 | -1 | -5.3 | -21.5 | 10.8 |
| GPR39 | SID131503846 | 0 | -7.5 | 0.2 | -15.2 |
| SCAMP4 | SID131501253 | -1 | -11 | -6.1 | -15.9 |
| LOC441653 | SID131513335 | 0 | 6.5 | 6.1 | 6.8 |
| INTS9 | SID131512414 | 0 | 5.4 | 5.9 | 5 |
| TBCD | SID131510461 | 0 | 3.3 | 9.5 | -2.9 |
| LOC391343 | SID131515427 | 0 | 9.2 | 11 | 7.3 |
| TMEM182 | SID131508939 | 0 | 1.6 | -2.8 | 6.1 |
| LOC387824 | SID131519427 | 1 | 5.5 | -3.5 | 14.5 |
| ZNF689 | SID131507998 | 0 | 0.5 | -3.6 | 4.6 |
| CYP8B1 | SID131503825 | 0 | -7.6 | -21.1 | 5.9 |
| SBSPON | SID131514343 | 0 | 7.7 | 12.5 | 2.9 |
| LOC442464 | SID131516490 | 0 | 11 | 2.9 | 19.1 |
| LOC440978 | SID131522140 | 1 | 16.4 | 1.4 | 31.4 |
| PISD | SID131507741 | 0 | 0.2 | 2.1 | -1.6 |
| SBNO1 | SID131515599 | 0 | 9.4 | 7.7 | 11.2 |
| CISD2 | SID131518669 | 0 | 23.9 | 23.3 | 24.6 |
| CSGALNACT2P1 | SID131510710 | 0 | 3.5 | 1 | 6.1 |
| ZNF691 | SID131507261 | 0 | -0.4 | -1.9 | 1.2 |
| LOC286495 | SID131515631 | 0 | 9.5 | 1.3 | 17.6 |
| SSNA1 | SID131501542 | -1 | -9.1 | 0.4 | -18.6 |
| NHLH1 | SID131503064 | 0 | -14.4 | -18.9 | -9.9 |
| SCARB2 | SID131502110 | -1 | -5.3 | -27.9 | 17.4 |
| CDYL | SID131512440 | 0 | 5.5 | -3.9 | 14.8 |
| GUCY1A2 | SID131500436 | -1 | -31.3 | -41.2 | -21.4 |
| CLEC9A | SID131508150 | 0 | 0.7 | -8.2 | 9.6 |
| JRKL | SID131508404 | 0 | 1 | -5.7 | 7.7 |
| SLC13A4 | SID131510581 | 0 | 3.4 | 2.2 | 4.6 |
| SRXN1 | SID131508644 | 0 | 1.3 | 4.9 | -2.4 |
| ZBED10P | SID131509531 | 0 | 2.2 | 0.3 | 4.2 |
| AMMECR1 | SID131504921 | 0 | -4.2 | -1 | -7.4 |
| GBE1 | SID131513706 | 0 | 6.9 | 15.1 | -1.3 |
| HNF1A | SID131501206 | -1 | -11.4 | -25 | 2.2 |
| CRNN | SID131514546 | 0 | 7.9 | 26.2 | -10.4 |

Sorted by “protection from cisplatin (shift in death), siRNA C (%)” (descending): some entries from above.
| gene | PubChem SID | two-siRNA summed score (-2 to +2) | mean protection from cisplatin (shift in death) (%) | protection from cisplatin (shift in death), siRNA C (%) | protection from cisplatin (shift in death), siRNA D (%) |
| --- | --- | --- | --- | --- | --- |
| CISD2 | SID131518669 | 0 | 23.9 | 23.3 | 24.6 |
| SBNO1 | SID131515599 | 0 | 9.4 | 7.7 | 11.2 |
| LOC286495 | SID131515631 | 0 | 9.5 | 1.3 | 17.6 |
| CSGALNACT2P1 | SID131510710 | 0 | 3.5 | 1 | 6.1 |
| SSNA1 | SID131501542 | -1 | -9.1 | 0.4 | -18.6 |
| ZNF691 | SID131507261 | 0 | -0.4 | -1.9 | 1.2 |
